For some of these results: At least one structure is not confirmed: it was looked up by name or label, or the drawing left a doubt. Some results were stated once for a whole list of compounds, not compound by compound.
Key:
Format in all cases: cell-based
[1] = tested on: U87 MG glioma cells; assay: Cell survival rate by tetrazolium blue colorimetry, U87 MG cells; settings: U87MG cells, 10 μM; FIGS. 13 and 14
Method: (§1) FIG. 13: Evaluation of cell survival rate in a Transwell model. A Transwell model of co-incubation of brain microvascular endothelial cells bEnd.3 and glioma cells U87 MG simulates a pathological blood-brain barrier. Axitinib (10 μM) and an Axitinib analog of phosphatidylinositol kinase (PI3K) inhibitor LY294002 (10 μM) were added into the Transwell chamber. After 24 hours, the survival rate of bEnd.3 cells in the Transwell chamber (Panel A) and U87 MG cells in the Transwell outer chamber (Panel B) were detected by tetrazolium blue colorimetry (n=3).
(§2) FIG. 14: Evaluation of Cytotoxicity for Axitinib and an analog thereof. […] Cell survival rate was detected by tetrazolium blue colorimetry. […]
(§3) The physiological blood-brain barrier and the pathological blood-brain barrier as constructed in Method 1 and Method 2 in the Example 1 were used as models, respectively. […] Absorbance at 570 nm was measured with a microplate reader. The survival rate of cells was calculated according to the following formula: Survival rate of cells (%)=(absorbance value of a test group/absorbance value of a control group)×100%
(§4) In addition, bEnd.3 cells and U87 MG glioma cells were used as model cells to evaluate the cytotoxicity of Axitinib and an Axitinib analog of phosphatidylinositol kinase (PI3K) inhibitor LY294002 with the tetrazolium blue colorimetric method. […] Absorbance at 570 nm was measured with a microplate reader.

[2] = tested on: bEnd.3 cells; assay: Cell survival rate by tetrazolium blue colorimetry, bEnd.3 cells; settings: 10 μM, FIGS. 13 and 14
Method: as §1, §2, §3, §4

[3] = tested on: pathological blood-brain barrier (bEnd.3 cells co-incubated with U87 MG glioma cells); assay: Pathological blood-brain barrier Transwell model, FITC-dextran transmembrane transport; settings: 10 μM, 24 hours, then FITC-dextran 10 kDa for 4 hours; FIG. 11
[4] = tested on: Claudin-5/Occludin; assay: Pathological blood-brain barrier Transwell model, Claudin-5/Occludin immunofluorescence; settings: 10 μM, 24 hours; FIG. 12
[5] = tested on: pathological blood-brain barrier (bEnd.3 cells with tumor cell culture); assay: Tumor cell culture co-incubated with bEnd.3 cells (U87MG removed), FITC-dextran transmembrane transport; settings: tumor cell culture kept, 10 μM, 24 hours, FIG. 16
Method: FIG. 16: Co-incubation of a tumor cell culture and bEnd.3 cells in vitro, and FITC-dextran transmembrane transport efficiency. A Transwell model of co-incubation of brain microvascular endothelial cells bEnd.3 and glioma cells U87 MG simulates a pathological blood-brain barrier. Once a pathological blood-brain barrier model was formed, U87MG glioma cells in the outer chamber of Transwell were removed, while the tumor cell cultures were remained. Axitinib (10 μM) and an Axitinib analog of phosphatidylinositol kinase (PI3K) inhibitor LY294002 (10 μM) were added to the Transwell chamber. After 24 hours, the Transwell chamber and the outer chamber were cleaned with PBS, and a FITC-dextran solution in HBSS was added to the Transwell chamber, and was allowed to act for 4 hours. The result as shown in the figure was the FITC-dextran concentration of the Transwell outer chamber as detected by a fluorescence spectrophotometer. […]
The physiological blood-brain barrier and the pathological blood-brain barrier as constructed in Method 1 and Method 2 in the Example 1 were used as models, respectively. […] After the cells were incubated at 37° C. in the dark for 4 hours, concentration of FITC-dextran transferred to the outer chamber via the Transwell chamber was detected with a fluorescence spectrophotometer.

[6] = tested on: pathological blood-brain barrier (bEnd.3 cells with tumor cell culture); assay: Tumor cell culture co-incubated with bEnd.3 cells (U87MG removed), cell transmembrane resistance; settings: tumor cell culture kept, 10 μM, 24 hours, FIG. 15
Method: FIG. 15: Co-incubation of a tumor cell culture and bEnd.3 cells in vitro, regulation of blood-brain barrier permeability by Axitinib and an analog thereof, and determination of a cell transmembrane resistance. A Transwell model of co-incubation of brain microvascular endothelial cells bEnd.3 and glioma cells U87 MG simulates a pathological blood-brain barrier. Once a pathological blood-brain barrier model was formed, U87MG glioma cells in the outer chamber of Transwell were removed, while the tumor cell cultures were remained. Axitinib (10 μM) and an Axitinib analog of phosphatidylinositol kinase (PI3K) inhibitor LY294002 (10 μM) were added to the Transwell chamber. After 24 hours, cell transmembrane resistance was detected by a cell resistance meter. A physiological blood-brain barrier simulated by a Transwell model of brain microvascular endothelial cell bEnd.3 was used as a positive control (n=5).
The physiological blood-brain barrier and the pathological blood-brain barrier as constructed in Method 1 and Method 2 in the Example 1 were used as models, respectively. Once a pathological blood-brain barrier model was formed, U87MG glioma cells in the outer chamber of Transwell were removed, while the tumor cell cultures were remained. […] Cell transmembrane resistance was detected by a cell resistance meter.

[7] = tested on: Claudin-5/Occludin; assay: Tumor cell culture co-incubated with bEnd.3 cells (U87MG removed), Claudin-5/Occludin immunofluorescence; settings: tumor cell culture kept, 10 μM, 24 hours, FIG. 17
Method: FIG. 17: Co-incubation of a tumor cell culture and bEnd.3 cells in vitro, and immunofluorescent staining of a blood-brain barrier tight junction protein of Claudin-5/Occludin. A Transwell model of co-incubation of brain microvascular endothelial cells bEnd.3 and glioma cells U87 MG simulates a pathological blood-brain barrier. Once a pathological blood-brain barrier model was formed, U87MG glioma cells in the outer chamber of Transwell were removed, while the tumor cell cultures were remained. Axitinib (10 μM) and an Axitinib analog of phosphatidylinositol kinase (PI3K) inhibitor LY294002 (10 μM) were added to the Transwell chamber. After 24 hours, immunofluorescent staining was performed on bEnd.3 cells on the Transwell chamber membrane. A physiological blood-brain barrier simulated by a Transwell model of brain microvascular endothelial cell bEnd.3 was used as a positive control.
The physiological blood-brain barrier and the pathological blood-brain barrier as constructed in Method 1 and Method 2 in the Example 1 were used as models, respectively. Once a pathological blood-brain barrier model was formed, U87MG glioma cells in the outer chamber of Transwell were removed, while the tumor cell cultures were remained. Axitinib (10 μM) and an Axitinib analog of phosphatidylinositol kinase (PI3K) inhibitor LY294002 (10 μM) were added to the Transwell chamber. […]

[8] = tested on: pathological blood-brain barrier (bEnd.3 cells co-incubated with U87 MG glioma cells); assay: Pathological blood-brain barrier Transwell model (bEnd.3 co-incubated with U87 MG), cell transmembrane resistance; settings: 10 μM, 24 hours; FIG. 10

Compound	Survival rate of cells [1]	Survival rate of cells [2]	FITC-dextran transmembrane transport (blood-brain barrier permeability) [3]	Expression of tight junction protein Claudin-5/Occludin [4]	FITC-dextran transmembrane transport (blood-brain barrier permeability) [5]	Cell transmembrane resistance (blood-brain barrier function) [6]	Expression of tight junction protein Claudin-5/Occludin [7]	Cell transmembrane resistance (blood-brain barrier function) [8]
CNC(=O)c1ccccc1Sc1ccc2c(/C=C/c3ccccn3)n[nH]c2c1 [Axitinib, N-methyl-2-((3-((1E)-2-(pyridine-2-yl)ethenyl)-1H-indazol-6-yl)sulfanyl)benzamide]	greater than 80%	greater than 80%						
O=c1cc(N2CCOCC2)oc2c(-c3ccccc3)cccc12 [LY294002]	greater than 80%	greater than 80%	reduce blood-brain barrier permeability	reduce the degree to which pathological blood-brain barrier tight junction protein of Claudin-5/Occludin is down-regulated	blood-brain barrier permeability is reduced	the blood-brain barrier function is recovered from a pathologically impaired state to a state close to a physiological barrier	the degree to which pathological blood-brain barrier tight junction protein of Claudin-5/Occludin is down-regulated is reduced	promote recovery of a blood-brain barrier function from a pathologically impaired state to a state close to a physiological barrier

— patent US12419875B2, “Use of Axitinib and analogs thereof in preparing blood-brain barrier permeability regulator” (ZHEJIANG UNIVERSITY, priority 2018, dated 2025)
